In paper PMC7819943, “Rice protein-binding microarrays: a tool to detect cis-acting elements near promoter regions in rice”:
The other results are listed elsewhere or left out.

By UniProt entry, the sequences of proteins in these tests, tags left out.
UniProt Q0JBA9, entry or part of it: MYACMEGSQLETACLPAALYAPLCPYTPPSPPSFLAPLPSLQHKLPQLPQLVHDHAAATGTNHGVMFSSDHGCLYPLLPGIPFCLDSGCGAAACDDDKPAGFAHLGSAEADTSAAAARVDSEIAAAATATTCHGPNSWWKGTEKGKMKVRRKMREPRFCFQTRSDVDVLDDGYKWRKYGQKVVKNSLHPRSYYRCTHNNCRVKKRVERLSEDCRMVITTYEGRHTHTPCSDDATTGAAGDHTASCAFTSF

These sequences were tested against OsWRKY34 (Oryza sativa, UniProt Q0JBA9 1-250) (assay: protein-binding microarray (RPBM); PBS, 2% BSA, 51.3 ng/ul salmon testes DNA, 50 uM zinc acetate, 200 nM TF, 25 C, 1 h; high values mean tight binding). Settings: protein: recombinant; tags: N-terminal polyhistidine and DsRed monomer fusion (pET32a); label: CyDye5-dUTP incorporated in the synthesized complementary strand; 3' TTTTT single-stranded linker to array surface; dsDNA, one strand shown.
Method in brief: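 Ni–NTA purification followed expression in E. coli BL21-CodonPlus of transcription factors fused N-terminally to a polyhistidine tag and DsRed. At 200 nM in PBS with 2% BSA, salmon testes DNA and 50 µM zinc acetate, the protein was incubated for 1 h at 25 °C with a custom Agilent array that had been primer-extended with Cy5-dUTP and blocked with 2% BSA. After washing, the array was read on an Axon 4000B scanner. The binding signal is per-feature fluorescence intensity in arbitrary units.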

| Sequence | binding signal |
| --- | --- |
| GTGAAACTTTTTTTTTTTTTTGCGGGGTTCTCACTCTGACCGGAGTCACCTAGTGCAG | 11000 fluorescence intensity (a.u.) |
| AGTTAATTTGTACCAAACTCTTAAGCATGGAGGATTTGACCGGAGTCACCTAGTGCAG | 8210 fluorescence intensity (a.u.) |
| ACGTAACACCTAGCAATTTTCTTCTCGCGAAATAAACAGTCGGAGTCACCTAGTGCAG | 8500 fluorescence intensity (a.u.) |
| GCCCATTTGTTCTTGATCCTATTCTTTGATTCTTTTGTACCGGAGTCACCTAGTGCAG | 8920 fluorescence intensity (a.u.) |
| AAAAACGCCCCTTACTTCCAGTTCTCACGGCTTAGTTTTCCGGAGTCACCTAGTGCAG | 8520 fluorescence intensity (a.u.) |
| ACATTGAATTGCACAAACGAATTCCTTGCATCCTCCTCGTCGGAGTCACCTAGTGCAG | 8720 fluorescence intensity (a.u.) |
| GCTTCCTGTTGTGCTGTAGCGCTGCTGCCGCCCGTTGCGCCGGAGTCACCTAGTGCAG | 8150 fluorescence intensity (a.u.) |
| CCCTATCCTATATATCGAGCTATCACTACCTACCTCCACCCGGAGTCACCTAGTGCAG | 8750 fluorescence intensity (a.u.) |
| ATATTTTGCCTGTACTGTTTGACAACTCATCTTATTCAAACGGAGTCACCTAGTGCAG | 9020 fluorescence intensity (a.u.) |
| AATCATTTATTATTGTCGGCACATTTTGCAATTTTTGATACGGAGTCACCTAGTGCAG | 10200 fluorescence intensity (a.u.) |
| AACACCACGCCGCGCGCTCCACGGCAACGCAACGCAGGAACGGAGTCACCTAGTGCAG | 8720 fluorescence intensity (a.u.) |
| ACCACCGTTAACCTATCGTCACCGTCCGCATGAACAAACCCGGAGTCACCTAGTGCAG | 12900 fluorescence intensity (a.u.) |
| GCCACCCGCCCGCCGCCGCCGCCGCCGCCGCCGCCGAGCACGGAGTCACCTAGTGCAG | 10600 fluorescence intensity (a.u.) |
| CACCTTTCTGCAGTTCTGATTCCATTCTTGCAAGTTCTAGCGGAGTCACCTAGTGCAG | 8400 fluorescence intensity (a.u.) |
| GCCTGTTCATTTCACATTTTCACTGCTACGTACTCGATCACGGAGTCACCTAGTGCAG | 10200 fluorescence intensity (a.u.) |
| TGCTCCCTTGCCCACGCCGTCGCCTTTGCATCGCATCCTTCGGAGTCACCTAGTGCAG | 8440 fluorescence intensity (a.u.) |
| CTCTCTCGAGTCTCGAAGAAGACACACACTATTCTCTCTTCGGAGTCACCTAGTGCAG | 9360 fluorescence intensity (a.u.) |
| GAAGCGCCGCCGCCGCGTTCACCGTTCGTCCGTTCCGCTCCGGAGTCACCTAGTGCAG | 8080 fluorescence intensity (a.u.) |
| CTCTATCTCATCCCAGGGGCAATCTCGTAAATTTACCCGACGGAGTCACCTAGTGCAG | 9000 fluorescence intensity (a.u.) |
| ATAACATCATTTTCTCCTCTCTTGTTTTGAATTTTATTTTCGGAGTCACCTAGTGCAG | 8640 fluorescence intensity (a.u.) |
| TTTTTAACATTGGGATGCTTGTCCATTGTTTTTTTCTTTTCGGAGTCACCTAGTGCAG | 8040 fluorescence intensity (a.u.) |

Some values from the results shown:
Entry for GAAGCGCCGCCGCCGCGTTCACCGTTCGTCCGTTCCGCTCCGGAGTCACCTAGTGCAG under binding signal: 8080 fluorescence intensity (a.u.)
Entry for AATCATTTATTATTGTCGGCACATTTTGCAATTTTTGATACGGAGTCACCTAGTGCAG under binding signal: 10200 fluorescence intensity (a.u.)

The results go on:

| Sequence | binding signal |
| --- | --- |
| AAATGAGCTAAGTTTGACTTTTTCAAAATATATTAATAGTCGGAGTCACCTAGTGCAG | 15400 fluorescence intensity (a.u.) |
| CATGGGCTAATGTCCTTTTTTTATATATTTTTTTTGCCCTCGGAGTCACCTAGTGCAG | 8990 fluorescence intensity (a.u.) |
| AACCAAACAACCGTTGTCTTGGCACAGCTGTCGCAACCTGCGGAGTCACCTAGTGCAG | 8200 fluorescence intensity (a.u.) |
| AGGATGGGGATAGGGTTGATTTGTAATAGGGGTATTTTGGCGGAGTCACCTAGTGCAG | 15000 fluorescence intensity (a.u.) |
| TTTTTTCTTTCATCTCTCTCGTTTGCCACACGTCCTCTCTCGGAGTCACCTAGTGCAG | 12000 fluorescence intensity (a.u.) |
| TCCACTCTCTCTATATCTTGTGTGGCGCACTTGAAGCTTACGGAGTCACCTAGTGCAG | 8890 fluorescence intensity (a.u.) |
| AAGGGAGCAGCATTTTCCGGCCGTGTTTAGTTCCAAAGTTCGGAGTCACCTAGTGCAG | 9810 fluorescence intensity (a.u.) |
| GTGTCTTGGTGGTTGTTGTCACTTGAGAGCGGTTCAATTCCGGAGTCACCTAGTGCAG | 11000 fluorescence intensity (a.u.) |
| CAATCTTGCAGCTTTTCATCTCTTGTTCCTCCTAGATTTTCGGAGTCACCTAGTGCAG | 8240 fluorescence intensity (a.u.) |
| GCGAAACATCGTGGGTTTTTTTCTTGCCGGAGGAGGGGCACGGAGTCACCTAGTGCAG | 11300 fluorescence intensity (a.u.) |
| TGCACACTCCATGTTGCCCGATCGCGAAGTACTATAATAACGGAGTCACCTAGTGCAG | 8480 fluorescence intensity (a.u.) |
| ACCACAACCTTAGTTTTGTTTGTCATATCATCTCTGTTACCGGAGTCACCTAGTGCAG | 10300 fluorescence intensity (a.u.) |
| CCCGTTTTCTCAGCCCTAGTCATCCCCACTTGCCCGGATCCGGAGTCACCTAGTGCAG | 9080 fluorescence intensity (a.u.) |
| TCGCCACTGCCGCCGCTCCCGACCGCCGCCGCCGCTCTGGCGGAGTCACCTAGTGCAG | 10400 fluorescence intensity (a.u.) |
| TCTGAGTTACTTCCAAGTTGACTAGTTACCTCTTACTACCCGGAGTCACCTAGTGCAG | 8220 fluorescence intensity (a.u.) |
| AGGGGAGGTAGGTAAGAAGATTGAACAGTGGAGGGTTGTACGGAGTCACCTAGTGCAG | 9840 fluorescence intensity (a.u.) |
| TCTTTCTTTTTTATACCTTTTTTCTCTTTAACTTATCCTCCGGAGTCACCTAGTGCAG | 9650 fluorescence intensity (a.u.) |
| ACGAGTCCGTTTCTAGGGTTAGGGTTAGTGGCGGCGGCGGCGGAGTCACCTAGTGCAG | 8580 fluorescence intensity (a.u.) |
| CGGTCAAACGTTGGGCACGGATATCCACGGCTACACTTATCGGAGTCACCTAGTGCAG | 9270 fluorescence intensity (a.u.) |
| TTCCATTTCTTCCATCCGTCGCCGGGGCTCCCGCTCCTCTCGGAGTCACCTAGTGCAG | 8470 fluorescence intensity (a.u.) |
| TATATATGGGGTGTGTGTGTGTGTGTGATGGGTTAATCGACGGAGTCACCTAGTGCAG | 11200 fluorescence intensity (a.u.) |
